From article PMC12043082 come the findings set out here.

The chains behind the UniProt entries cited, without tags or fusion partners.
UniProt Q5EG47: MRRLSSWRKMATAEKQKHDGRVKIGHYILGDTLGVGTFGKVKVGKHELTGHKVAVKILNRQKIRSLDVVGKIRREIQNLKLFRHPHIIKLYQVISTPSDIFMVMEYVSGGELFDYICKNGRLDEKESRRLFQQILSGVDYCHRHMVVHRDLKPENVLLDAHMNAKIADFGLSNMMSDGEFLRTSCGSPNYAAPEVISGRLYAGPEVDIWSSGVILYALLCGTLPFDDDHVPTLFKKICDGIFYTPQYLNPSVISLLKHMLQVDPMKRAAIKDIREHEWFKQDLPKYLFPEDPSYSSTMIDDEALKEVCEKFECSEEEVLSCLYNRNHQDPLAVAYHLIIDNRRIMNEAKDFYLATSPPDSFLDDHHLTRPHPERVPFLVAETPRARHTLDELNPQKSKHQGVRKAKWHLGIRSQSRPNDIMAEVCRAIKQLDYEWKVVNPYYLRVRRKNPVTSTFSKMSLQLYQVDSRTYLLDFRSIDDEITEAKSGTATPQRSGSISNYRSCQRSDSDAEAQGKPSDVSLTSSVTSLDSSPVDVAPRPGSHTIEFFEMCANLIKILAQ
UniProt P13864: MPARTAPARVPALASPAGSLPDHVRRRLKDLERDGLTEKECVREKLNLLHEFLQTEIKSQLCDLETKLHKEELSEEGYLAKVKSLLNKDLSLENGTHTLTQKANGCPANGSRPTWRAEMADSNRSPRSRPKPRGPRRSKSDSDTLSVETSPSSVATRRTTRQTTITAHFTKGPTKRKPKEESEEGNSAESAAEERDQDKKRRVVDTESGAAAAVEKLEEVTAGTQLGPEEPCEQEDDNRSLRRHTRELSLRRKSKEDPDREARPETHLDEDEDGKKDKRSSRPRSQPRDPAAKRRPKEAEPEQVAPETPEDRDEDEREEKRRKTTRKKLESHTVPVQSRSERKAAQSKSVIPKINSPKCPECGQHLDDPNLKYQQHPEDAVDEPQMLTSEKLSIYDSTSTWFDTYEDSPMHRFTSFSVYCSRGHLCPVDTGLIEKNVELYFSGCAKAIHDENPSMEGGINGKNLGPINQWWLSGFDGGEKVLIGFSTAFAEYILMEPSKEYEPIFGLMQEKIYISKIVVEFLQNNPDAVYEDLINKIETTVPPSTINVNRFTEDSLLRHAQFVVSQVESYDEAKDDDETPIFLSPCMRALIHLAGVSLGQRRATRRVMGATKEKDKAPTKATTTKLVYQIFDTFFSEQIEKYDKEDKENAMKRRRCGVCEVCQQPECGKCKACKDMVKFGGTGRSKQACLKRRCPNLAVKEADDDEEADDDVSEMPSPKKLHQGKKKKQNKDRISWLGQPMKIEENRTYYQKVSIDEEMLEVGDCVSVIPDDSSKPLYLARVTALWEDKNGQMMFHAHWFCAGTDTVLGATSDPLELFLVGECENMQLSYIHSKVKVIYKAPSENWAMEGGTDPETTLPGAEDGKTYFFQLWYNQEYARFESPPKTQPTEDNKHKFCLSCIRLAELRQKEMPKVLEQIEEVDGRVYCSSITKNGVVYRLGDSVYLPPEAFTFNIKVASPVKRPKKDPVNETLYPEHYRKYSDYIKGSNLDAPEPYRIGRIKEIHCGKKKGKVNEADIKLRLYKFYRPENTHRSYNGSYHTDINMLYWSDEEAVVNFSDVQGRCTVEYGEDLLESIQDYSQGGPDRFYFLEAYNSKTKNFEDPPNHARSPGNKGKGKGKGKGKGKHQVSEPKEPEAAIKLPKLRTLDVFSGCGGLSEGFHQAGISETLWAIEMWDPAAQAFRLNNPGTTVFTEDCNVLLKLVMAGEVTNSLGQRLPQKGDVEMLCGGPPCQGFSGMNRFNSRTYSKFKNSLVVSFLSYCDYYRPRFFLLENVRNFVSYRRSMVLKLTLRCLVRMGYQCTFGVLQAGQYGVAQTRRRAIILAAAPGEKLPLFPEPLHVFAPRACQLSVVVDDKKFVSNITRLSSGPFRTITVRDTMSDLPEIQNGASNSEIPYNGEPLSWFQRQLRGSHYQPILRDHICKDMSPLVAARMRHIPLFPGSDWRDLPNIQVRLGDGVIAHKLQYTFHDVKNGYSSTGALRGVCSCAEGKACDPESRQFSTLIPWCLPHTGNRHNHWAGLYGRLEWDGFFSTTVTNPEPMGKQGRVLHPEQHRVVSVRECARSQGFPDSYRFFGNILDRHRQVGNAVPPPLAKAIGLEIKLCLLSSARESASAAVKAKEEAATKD

This assay has as its target AMPKα1 (α1 catalytic subunit of AMP-activated protein kinase), mouse (mouse (endogenous in primary iTreg cells)) (UniProt Q5EG47). In words: co-IP; lysate of 1 x 10^6 primary mouse iTreg cells; anti-AMPKα1 (Abcam ab32047) or isotype control overnight at 4°C, Protein G beads, blotted for DNMT1.

Results are given in words; binding and its absence hold for the method and conditions named. In cells and extracts the contact can be indirect. Some results given as binding are weak or reduced against the parent protein; the word gives no strength.

As to “DNA methyltransferase 1 (DNMT1), mouse (from UniProt P13864 1-1620)”, the binding result was “binds”.
